Laboratory results: PubChem BioAssay AID1259308 (NCATS, 2017)
The whole screen tested about 59,000 reagents; shown is a part drawn at random. Over the whole deposit, about 1,510 (2.6%) got an active call. 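Calls use total luciferase alone and ignore viability, so some active siRNAs may act by altering cell number.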 A number with no mark means an inactive call. Reagents against one gene are numbered here.

Purpose: 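Knock-downs that increase output of a recombinant reporter protein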 (primary screen)
Cells: human HEK293 embryonic kidney cells stably expressing firefly luciferase (HEK-CMV-Luc2-Hygro)
Knock-down reagent: single siRNA against human genes, 0.8 pmol siRNA per well
Duration: 72 h
Measurement: 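Luciferase light (ONE-Glo) measured on one replicate plate set and viability (CellTiter-Glo) on the other, scaled to a negative control siRNA, with robust z-scores and luciferase per cell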
Direction: total luciferase, z-score and total luciferase, % of control: higher = more reporter protein produced; luciferase per cell, z-score: higher = more reporter output per viable cell; viable cells, % of control: higher = more viable cells
Active means: 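Active when the median/MAD z-score for overall luciferase is greater than 3; a gene was taken forward for validation with new siRNAs if at least two of its three siRNAs passed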
Meaning of the calls: active = raised luciferase; inactive = no rise

| Target gene | reagent | total luciferase, z-score | total luciferase, % of control | luciferase per cell, z-score | viable cells, % of control |
| --- | --- | --- | --- | --- | --- |
| LOC400576 (retired record) | 1 | -0.78 | 66.4 | -0.4 | 82.4 |
| LOC400576 (retired record) | 2 | -0.682 | 68.3 | 0.164 | 73.1 |
| LOC400576 (retired record) | 3 | 3.94 (active) | 160 | 3.4 | 73 |
| TP53 (tumor protein p53) | 1 | -0.468 | 72.6 | -0.825 | 101 |
| TP53 (tumor protein p53) | 2 | -0.156 | 78.8 | -0.741 | 107 |
| TP53 (tumor protein p53) | 3 | 0.116 | 84.2 | 0.0582 | 92.7 |
| NUDT14 (nudix hydrolase 14) | 1 | -0.278 | 76.4 | -0.991 | 111 |
| NUDT14 (nudix hydrolase 14) | 2 | -2.09 | 40.4 | -2.96 | 98.4 |
| NUDT14 (nudix hydrolase 14) | 3 | 1.62 | 114 | 1.37 | 89.1 |
| ZNF286A (zinc finger protein 286A) | 1 | -0.827 | 65.4 | -0.728 | 88.6 |
| ZNF286A (zinc finger protein 286A) | 2 | -2.06 | 40.9 | -2.21 | 81.7 |
| ZNF286A (zinc finger protein 286A) | 3 | -0.654 | 68.9 | -0.416 | 85.9 |
| LAMB4 (laminin subunit beta 4) | 1 | -0.166 | 78.6 | -0.0286 | 88.5 |
| LAMB4 (laminin subunit beta 4) | 2 | 0.601 | 93.8 | 0.636 | 88.7 |
| LAMB4 (laminin subunit beta 4) | 3 | 2.18 | 125 | 1.06 | 106 |
| SWT1 (SWT1 RNA endoribonuclease homolog) | 1 | -1.34 | 55.2 | -0.722 | 74.6 |
| SWT1 (SWT1 RNA endoribonuclease homolog) | 2 | -0.277 | 76.4 | -0.28 | 91.9 |
| SWT1 (SWT1 RNA endoribonuclease homolog) | 3 | 0.0125 | 82.1 | -0.00969 | 92 |
| FSCN1 (fascin actin-bundling protein 1) | 1 | 0.842 | 98.6 | 0.245 | 103 |
| FSCN1 (fascin actin-bundling protein 1) | 2 | -2.2 | 38.2 | -2.4 | 80.3 |
| FSCN1 (fascin actin-bundling protein 1) | 3 | -0.215 | 77.6 | -0.471 | 98.2 |
| LLPH (LLP homolog, long-term synaptic facilitation factor) | 1 | 0.206 | 86 | 0.127 | 92.9 |
| LLPH (LLP homolog, long-term synaptic facilitation factor) | 2 | -0.216 | 77.6 | -0.258 | 92.8 |
| LLPH (LLP homolog, long-term synaptic facilitation factor) | 3 | -0.906 | 63.9 | -1.43 | 104 |
| TEKT5 (tektin 5) | 1 | 2.46 | 131 | 1.14 | 108 |
| TEKT5 (tektin 5) | 2 | 1.36 | 109 | 1.42 | 83.7 |
| TEKT5 (tektin 5) | 3 | -0.641 | 69.1 | -0.68 | 92.4 |
| ARHGAP22 (Rho GTPase activating protein 22) | 1 | -0.819 | 65.6 | -0.173 | 76.7 |
| ARHGAP22 (Rho GTPase activating protein 22) | 2 | -0.292 | 76.1 | -0.625 | 100 |
| ARHGAP22 (Rho GTPase activating protein 22) | 3 | 1.01 | 102 | 0.801 | 92.3 |
| LIM2 (lens intrinsic membrane protein 2) | 1 | 0.221 | 86.3 | -0.211 | 102 |
| LIM2 (lens intrinsic membrane protein 2) | 2 | 0.117 | 84.2 | 0.141 | 90.7 |
| LIM2 (lens intrinsic membrane protein 2) | 3 | 1.48 | 111 | 2.11 | 71.4 |
| XAGE3 (X antigen family member 3) | 1 | 0.329 | 88.4 | 0.676 | 82.7 |
| XAGE3 (X antigen family member 3) | 2 | 1.01 | 102 | 3.05 | 51 |
| XAGE3 (X antigen family member 3) | 3 | -0.511 | 71.7 | -0.305 | 86.8 |
| SPRR3 (small proline rich protein 3) | 1 | 1.91 | 120 | 1.37 | 93.4 |
| SPRR3 (small proline rich protein 3) | 2 | 1.26 | 107 | 0.853 | 95.5 |
| SPRR3 (small proline rich protein 3) | 3 | 1.3 | 108 | 0.771 | 98.3 |
| TRPV6 | 1 | 2.14 | 124 | 1.44 | 95.2 |
| TRPV6 | 2 | 0.566 | 93.1 | -0.256 | 111 |
| TRPV6 | 3 | 1.74 | 117 | 1.23 | 94.3 |
| NPRL3 (NPR3 like, GATOR1 complex subunit) | 1 | -0.814 | 65.7 | 0.209 | 69.5 |
| NPRL3 (NPR3 like, GATOR1 complex subunit) | 2 | -0.275 | 76.4 | -0.143 | 88.7 |
| NPRL3 (NPR3 like, GATOR1 complex subunit) | 3 | 1.26 | 107 | 1.45 | 81.7 |
| ZNF555 (zinc finger protein 555) | 1 | 0.244 | 86.7 | -0.114 | 99.9 |
| ZNF555 (zinc finger protein 555) | 2 | 0.357 | 89 | -0.3 | 108 |
| ZNF555 (zinc finger protein 555) | 3 | 0.759 | 97 | 0.249 | 101 |
| RELL2 (RELT like 2) | 1 | 0.215 | 86.2 | 0.24 | 90.4 |
| RELL2 (RELT like 2) | 2 | -0.586 | 70.2 | 1.18 | 57.5 |
| RELL2 (RELT like 2) | 3 | 0.361 | 89.1 | 0.49 | 87.5 |
| FBRSL1 (fibrosin like 1) | 1 | -1.05 | 61 | -0.823 | 84.6 |
| FBRSL1 (fibrosin like 1) | 2 | -0.417 | 73.6 | -0.22 | 87.1 |
| FBRSL1 (fibrosin like 1) | 3 | 1.96 | 121 | 0.613 | 115 |
| FBRSL1 (fibrosin like 1) | 4 | 1.06 | 103 | 1.48 | 77.9 |
| FBRSL1 (fibrosin like 1) | 5 | -0.254 | 76.8 | -0.628 | 101 |
| FBRSL1 (fibrosin like 1) | 6 | 0.837 | 98.5 | -0.0214 | 111 |
